Laboratory results taken from the supplement of paper PMC12578635.
Some of the results follow. Many values rest on one well or one pass, so single values are uncertain.

test system: RAW 264.7 macrophages infected with S. aureus JE2-lux; assay: host macrophage viability (CellTiter-Fluor) relative to DMSO vehicle; higher = more viable host cells; settings: 10 µM; treatment time 4 h; gentamicin 50 µg/ml

SMILES | host macrophage viability
COc1ccc2cc(C)c3nn(CCNC(=O)c4noc5c4CCCC5)c(=O)n3c2c1 | 100%
COC(=O)CSc1nc(-c2ccc(OC)cc2)nc2c1Cc1cc(C)ccc1O2 | 96.9%
C=CCN(C(=O)C(C)Sc1nc2ncccc2o1)c1ccccc1 (configuration not stated) | 119%
CCN(c1ccccc1)S(=O)(=O)c1ccc(C(=O)Nc2ccc3c(c2)C(=O)N(C)C3=O)cc1 | 126%
COc1ccc(OC)c(NS(=O)(=O)c2c(C)sc(C)c2-c2cc(C(F)(F)F)on2)c1 | 101%
Cc1nc(OCC(=O)NC2CCCc3ccccc32)c2c(-c3cccc(F)c3)noc2n1 (configuration not stated) | 111%
COc1ccc(C(=O)CSc2cc(C)[nH]c(=O)n2)cc1 | 123%
CCCCNS(=O)(=O)c1ccc2[nH]c(=O)cc(C)c2c1 | 127%
Cc1ccn2c(=O)nc(SCC(=O)c3ccccc3)nc2c1 | 111%
Cc1ccc2cc(CCNC(=O)c3c(F)cccc3Cl)c(=O)[nH]c2c1C | 126%
CCOC(=O)N1CCC2(CC1)Oc1c(OC)cccc1C1CC(c3cc(C)ccc3O)=NN12 (configuration not stated) | 119%
COCCNc1cc(C)nc2cc(-c3cc(OC)cc(OC)c3)nn12 | 92.3%
Cc1cc(NC(=O)c2ccccc2C(F)(F)F)n(-c2ncnc3c2cnn3-c2cccc(Cl)c2)n1 | 120%
Cc1ccc2nc(NCc3ccccc3)c(/C=N/Cc3cccnc3)c(=O)n2c1 | 106%
O=C(COc1ncnc2ccccc12)NC1(CN2CCCC2)CCCCC1 | 103%
O=C(CSc1nc(=O)[nH]c2c1CCCC2)NCc1ccc2c(c1)OCO2 | 125%
CC(SC1=Nc2ccccc2C2=NC(c3ccccc3)C(=O)N12)C(=O)Nc1ccc2c(c1)OCCO2 (configuration not stated) | 98.7%
COc1ccc(CCNC(=O)Cn2nc(-c3ccc(C)o3)cc(N)c2=O)cc1OC | 106%
CCc1ccc(-c2noc3c(=O)n(CCC(=O)NCCCN4CCCC4=O)cnc23)cc1 | 130%
CCN(CC)c1cc(CNC(=O)Nc2ccc3c(c2)OCO3)ccn1 | 118%
O=C(Cn1c2c(c(=O)n3nc(-c4ccccc4)nc13)CCC2)NCC1CCCO1 (configuration not stated) | 109%
O=C(COc1ncnc2onc(-c3ccccc3)c12)Nc1ccc(Br)cc1F | 131%
COc1cc(NC(=O)CSc2nnc(-c3ccc(NS(=O)(=O)c4ccccc4)cc3)o2)cc(OC)c1 | 112%
CCOC(=O)c1sc(NC(=O)c2ccc(Cl)s2)c(SC#N)c1C | 149%
O=C(NC1CCN(Cc2ccccc2)CC1)c1cnc(N2CCOCC2)c2ccccc12 | 113%
CCOc1ccc2ncc(C(=O)NCc3ccc(F)cc3)c(O)c2c1 | 109%

Among those listed so far, seven contain a halogen:
SMILES | host macrophage viability
COc1ccc(OC)c(NS(=O)(=O)c2c(C)sc(C)c2-c2cc(C(F)(F)F)on2)c1 | 101%
Cc1nc(OCC(=O)NC2CCCc3ccccc32)c2c(-c3cccc(F)c3)noc2n1 (configuration not stated) | 111%
Cc1ccc2cc(CCNC(=O)c3c(F)cccc3Cl)c(=O)[nH]c2c1C | 126%
Cc1cc(NC(=O)c2ccccc2C(F)(F)F)n(-c2ncnc3c2cnn3-c2cccc(Cl)c2)n1 | 120%
O=C(COc1ncnc2onc(-c3ccccc3)c12)Nc1ccc(Br)cc1F | 131%
CCOC(=O)c1sc(NC(=O)c2ccc(Cl)s2)c(SC#N)c1C | 149%
CCOc1ccc2ncc(C(=O)NCc3ccc(F)cc3)c(O)c2c1 | 109%

(listing goes on)

SMILES | host macrophage viability
CC(=O)Nc1ccc(NC(=O)c2cnc3c(c(C)nn3-c3ccccc3)c2Cl)cc1 | 107%
C=CCOc1cc(C2CC(=O)Nc3c2c(C)nn3-c2nncc(-c3ccc(C)cc3)n2)ccc1OC (configuration not stated) | 111%
COc1cc(C)c(-c2nc(NC(=O)C3(C)CCCO3)sc2C)cc1C (configuration not stated) | 93.1%
N#Cc1c(NC(=O)CC2SC(=N)NC2=O)sc2c1CCCC2 (configuration not stated) | 127%
Cc1csc2nc(O)c(C(=O)NCCCN3CCOCC3)c(=O)n12 | 124%
Cc1ccccc1CNc1nc(NCCO)nc2c1cnn2C | 114%
CCOC(=O)c1c(NC(=O)CSc2nnc3ncccn23)sc(C)c1C | 112%
Cc1nc2ccc(NC(=O)c3cccc(NS(=O)(=O)c4ccc(F)cc4)c3)cc2s1 | 113%
O=C(Cn1c(=O)n(CCc2ccccc2)c(=O)c2c3c(sc21)CCCC3)Nc1ccc(F)c(F)c1 | 106%
Cc1cc2cc3c(cc2nc1NCCNC(=O)c1ccco1)OCCO3 | 110%
CCOC(=O)c1cnc2cc(OC)c(OC)cc2c1O | 101%
COc1ccc(OC)c(Nc2ncc3c(n2)CCNC3)c1 | 108%
Cc1cc(=O)[nH]c(N2CCN(C(=O)N3CCCCC3)CC2)n1 | 120%
Cc1ccc2c(c1)C(=O)C(=O)N2CCn1c2ccccc2c2nc3ccccc3nc21 | 109%
COc1ccccc1-c1nc(SCC(=O)NCC2CCCO2)c2c(=O)n(C)c(=O)n(C)c2n1 (configuration not stated) | 126%
COc1ccc(NC(=O)c2cccc3nc4ccccc4nc23)c(OC)c1 | 135%
CN1C(=O)NC(c2cccc(F)c2)C(C(=O)c2cccs2)C1(O)C(F)(F)F (configuration not stated) | 112%
Cc1ccc(Cl)c2sc(N3CCN(C(=O)c4cccc([N+](=O)[O-])c4)CC3)nc12 | 107%
CC(=O)N1c2ccc(NC(=O)CSc3nccc4ccccc34)cc2CC1C (configuration not stated) | 111%
Cc1nc(-c2cccs2)c(CC(=O)NCc2ccc(Cl)cc2)s1 | 117%
Nc1nc(SCc2ccc3c(c2)OCO3)ns1 | 105%
COc1cc(Cn2nc3n(C)c4ccccc4n3c2=O)cc(OC)c1OC | 124%
COc1ccccc1OCCN(C)C(=O)Cn1cnc2sc(C)cc2c1=O | 106%
CC(Oc1cc2oc(=O)c3c(c2cc1Cl)CCC3)C(=O)O (configuration not stated) | 104%
CCn1nnc2cc(-c3noc(C4CC(=O)N(c5ccccc5)C4)n3)ccc21 (configuration not stated) | 113%
Cn1ncc2c(NCc3ccc(F)cc3)nc(N3CCOCC3)nc21 | 109%

Ordered by length of the SMILES (largest number first): some entries from above.
SMILES | host macrophage viability
COc1ccccc1OCCN(C)C(=O)Cn1cnc2sc(C)cc2c1=O | 106%
CC(Oc1cc2oc(=O)c3c(c2cc1Cl)CCC3)C(=O)O (configuration not stated) | 104%
Cc1ccccc1CNc1nc(NCCO)nc2c1cnn2C | 114%
